Measurements reported in PubChem BioAssay AID1259405 (NCATS, 2018)

Purpose: 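Knock-downs that lift recombinant protein yield in hamster ovary cells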 (primary screen)
System: Chinese hamster CHO-K1 ovary cells with stable secreted eGFP expression
Reagent: single siRNA against mouse genes, 0.8 pmol siRNA per well (2 µl of 400 nM stock)
Timing: 3 days
Measured: 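Per-well intracellular GFP measured by laser scanning cytometry, plus viability from ATP luminescence, each relative to plate median of non-targeting control wells, in %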
Reading the numbers: GFP, % of control: higher = more GFP per well, higher productivity; viability (ATP), % of control: higher = more viable cells (more ATP)
Call rule: 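Called active when intracellular GFP, relative to negative control, is at or above 120%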
Shown is one part, drawn at random, of about 50,000 reagents tested. About 4,000 of all reagents (8%) were called active. 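Mouse siRNA library applied to hamster cells; one well for each siRNA.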 The numbers tell different reagents against one gene apart. Reagent sequences are not shown.

gene symbol,reagent,"GFP, % of control","viability (ATP), % of control",Outcome
Or10j3 (olfactory receptor family 10 subfamily J member 3),1,61.4,74.8,inactive
Or10j3 (olfactory receptor family 10 subfamily J member 3),2,111,96.3,inactive
Or10j3 (olfactory receptor family 10 subfamily J member 3),3,55.8,55.8,inactive
Ly6g6g (lymphocyte antigen 6 family member G6G),1,53.7,69.6,inactive
Ly6g6g (lymphocyte antigen 6 family member G6G),2,47.7,45.2,inactive
Ly6g6g (lymphocyte antigen 6 family member G6G),3,92.6,92,inactive
Or13j1 (olfactory receptor family 13 subfamily J member 1),1,67.5,35.7,inactive
Or13j1 (olfactory receptor family 13 subfamily J member 1),2,131,75.7,active
Or13j1 (olfactory receptor family 13 subfamily J member 1),3,47.1,50.1,inactive
Mia2 (MIA SH3 domain ER export factor 2),1,54.8,48,inactive
Mia2 (MIA SH3 domain ER export factor 2),2,31.3,54.8,inactive
Mia2 (MIA SH3 domain ER export factor 2),3,76.6,68.8,inactive
Mia2 (MIA SH3 domain ER export factor 2),4,35.3,52.8,inactive
Mia2 (MIA SH3 domain ER export factor 2),5,76.1,96.3,inactive
Mia2 (MIA SH3 domain ER export factor 2),6,85.4,81.9,inactive
Rsu1 (Ras suppressor protein 1),1,97.9,81.3,inactive
Rsu1 (Ras suppressor protein 1),2,64.4,59.4,inactive
Rsu1 (Ras suppressor protein 1),3,47.1,37.3,inactive
Fam3d (FAM3 metabolism regulating signaling molecule D),1,60.9,54.5,inactive
Fam3d (FAM3 metabolism regulating signaling molecule D),2,145,69.3,active
Fam3d (FAM3 metabolism regulating signaling molecule D),3,89.9,68.1,inactive
Stard5 (StAR related lipid transfer domain containing 5),1,42.5,34.2,inactive
Stard5 (StAR related lipid transfer domain containing 5),2,70.7,76.1,inactive
Stard5 (StAR related lipid transfer domain containing 5),3,62.6,67.7,inactive
"Tfap2c (transcription factor AP-2, gamma)",1,56.8,52.9,inactive
"Tfap2c (transcription factor AP-2, gamma)",2,61.3,58.7,inactive
"Tfap2c (transcription factor AP-2, gamma)",3,66.9,82.1,inactive
Or8k22 (olfactory receptor family 8 subfamily K member 22),1,105,78.9,inactive
Or8k22 (olfactory receptor family 8 subfamily K member 22),2,65.4,68.3,inactive
Or8k22 (olfactory receptor family 8 subfamily K member 22),3,93.5,103,inactive
Unc5c (unc-5 netrin receptor C),1,86.2,77.8,inactive
Unc5c (unc-5 netrin receptor C),2,72.7,73.7,inactive
Unc5c (unc-5 netrin receptor C),3,53.5,71.4,inactive
Plxnb3 (plexin B3),1,81.4,71.3,inactive
Zfx (zinc finger protein X-linked),1,71.4,84,inactive
Zfx (zinc finger protein X-linked),2,85.6,75.6,inactive

Copied from the entries so far, 8 entries:
gene symbol,reagent,"GFP, % of control","viability (ATP), % of control",Outcome
Stard5 (StAR related lipid transfer domain containing 5),2,70.7,76.1,inactive
Stard5 (StAR related lipid transfer domain containing 5),3,62.6,67.7,inactive
"Tfap2c (transcription factor AP-2, gamma)",1,56.8,52.9,inactive
"Tfap2c (transcription factor AP-2, gamma)",2,61.3,58.7,inactive
"Tfap2c (transcription factor AP-2, gamma)",3,66.9,82.1,inactive
Or8k22 (olfactory receptor family 8 subfamily K member 22),1,105,78.9,inactive
Or8k22 (olfactory receptor family 8 subfamily K member 22),2,65.4,68.3,inactive
Or8k22 (olfactory receptor family 8 subfamily K member 22),3,93.5,103,inactive

Additional results follow:
gene symbol,reagent,"GFP, % of control","viability (ATP), % of control",Outcome
Herc3 (hect domain and RLD 3),1,102,65.4,inactive
Herc3 (hect domain and RLD 3),2,74.9,79.1,inactive
Herc3 (hect domain and RLD 3),3,38.8,42.7,inactive
Apoa2 (apolipoprotein A-II),1,90.6,82.8,inactive
Apoa2 (apolipoprotein A-II),2,96.5,81.1,inactive
Apoa2 (apolipoprotein A-II),3,94.8,99.5,inactive
Dock11 (dedicator of cytokinesis 11),1,123,78.3,active
Dock11 (dedicator of cytokinesis 11),2,101,81.5,inactive
Dock11 (dedicator of cytokinesis 11),3,60.1,79.6,inactive
Pot1a (protection of telomeres 1A),1,71.1,66.1,inactive
Pot1a (protection of telomeres 1A),2,87.2,78.7,inactive
Pot1a (protection of telomeres 1A),3,70.2,62.5,inactive
Crbn (cereblon),1,80.3,113,inactive
Crbn (cereblon),2,158,60.3,active
Crbn (cereblon),3,113,88.5,inactive
Dph5 (diphthamide biosynthesis 5),1,116,88.8,inactive
Dph5 (diphthamide biosynthesis 5),2,78.7,117,inactive
Dph5 (diphthamide biosynthesis 5),3,106,114,inactive
P4ha2,1,90.2,108,inactive
P4ha2,2,79.4,110,inactive
P4ha2,3,96,82.2,inactive
